Assay results from publication PMC10541425, “Targeting Toll-like receptor-driven systemic inflammation by engineering an innate structural fold into drugs” (Nature Communications, 2023).
Results are given in words; binding and its absence hold for the method and conditions named. Some results given as binding are weak or reduced against the parent protein; the word gives no strength. For part of these data: Sequences can lack the tags named with a protein.

What was measured:
[1] = target: T1, Deglycosylated hCD14 (human) (UniProt P08571); experiment: HDX-MS; deglycosylated CD14 ([…] in 20 mM Tris, 100 mM NaCl, 10% glycerol, pH 7.5) with or without peptide, molar ratio 1:10 (CD14:ligand); labelling 0, 30, 300, 3000, 9000 s at 20 °C in 25 mM Tris D2O buffer; online pepsin digestion; both purified
T1 sequence (chain, deglycosylated with PNGase F): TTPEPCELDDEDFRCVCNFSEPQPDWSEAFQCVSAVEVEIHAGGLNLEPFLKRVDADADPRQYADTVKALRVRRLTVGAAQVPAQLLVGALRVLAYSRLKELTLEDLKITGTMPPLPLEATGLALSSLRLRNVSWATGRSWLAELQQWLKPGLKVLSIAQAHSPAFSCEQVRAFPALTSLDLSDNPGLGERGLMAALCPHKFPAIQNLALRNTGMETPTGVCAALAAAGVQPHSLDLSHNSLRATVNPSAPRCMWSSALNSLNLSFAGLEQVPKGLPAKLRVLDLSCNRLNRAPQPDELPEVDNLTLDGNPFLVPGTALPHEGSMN

[2] = target: T2, Human His-tag CD14 (hCD14), glycosylated (human) (UniProt P08571); experiment: MST; RED-NHS-labelled glycosylated hCD14 (5 µL of 21 nM) mixed 1:1 with 0.03–1000 µM peptide, 10 mM Tris pH 7.4, with 150 mM NaCl; Monolith NT.115, standard capillaries; both purified
T2 sequence (chain, glycosylated; labelled with the Monolith NT Protein labeling kit RED – NHS): T1 sequence (chain, deglycosylated with PNGase F)

[3] = target: T2, Human His-tag CD14 (hCD14), glycosylated (human); experiment: MST; RED-NHS-labelled glycosylated hCD14 (5 µL of 21 nM) mixed 1:1 with 0.03–1000 µM peptide, 10 mM Tris pH 7.4, without NaCl; Monolith NT.115, standard capillaries; both purified

Measured: binding

HVFRLKKWIQKVIDQFGE [HVF18]
binds: [1] | [2] | [3]
